Measurements reported in publication PMC6165859.
Read-outs that look alike come from different tables or passages of the source. No constants are given. Whether binding was seen depends on the method and setting. Binding seen in cells or lysates may run through a third protein. Some binding calls cover weakened binding; strength is not graded here.

Protein sequences, listed by entry. Tags and fused reporters are not part of them. Lines headed by an entry give the natural chain unless they say otherwise; changes in a name come on top. Chains listed by the source or under a name are the forms on record and can include a tag or linker. Residues count along the entry.
UniProt Q9H0Y0: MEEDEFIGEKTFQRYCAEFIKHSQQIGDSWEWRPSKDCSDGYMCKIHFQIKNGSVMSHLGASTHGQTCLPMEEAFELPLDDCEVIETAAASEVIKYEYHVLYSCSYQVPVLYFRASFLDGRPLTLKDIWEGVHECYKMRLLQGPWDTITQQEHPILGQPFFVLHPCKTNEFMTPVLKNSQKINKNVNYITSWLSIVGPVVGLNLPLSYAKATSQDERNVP
Flag-tagged ATG10S (shorter isoform of autophagy-related 10 protein) (Q9H0Y0, form named): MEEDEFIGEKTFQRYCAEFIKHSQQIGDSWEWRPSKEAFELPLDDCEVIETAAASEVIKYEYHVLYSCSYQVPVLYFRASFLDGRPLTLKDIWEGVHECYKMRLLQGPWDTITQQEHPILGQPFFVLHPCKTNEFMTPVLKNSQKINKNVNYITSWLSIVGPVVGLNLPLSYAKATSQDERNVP
Flag-tagged ATG10^ΔC44 (Q9H0Y0, form named): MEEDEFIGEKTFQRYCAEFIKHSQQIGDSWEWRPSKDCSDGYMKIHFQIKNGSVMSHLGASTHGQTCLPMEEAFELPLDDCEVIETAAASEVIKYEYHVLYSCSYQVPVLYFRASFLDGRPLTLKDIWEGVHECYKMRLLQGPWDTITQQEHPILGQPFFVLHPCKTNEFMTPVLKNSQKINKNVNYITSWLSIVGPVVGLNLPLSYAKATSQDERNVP
UniProt P13473, residues 29-410: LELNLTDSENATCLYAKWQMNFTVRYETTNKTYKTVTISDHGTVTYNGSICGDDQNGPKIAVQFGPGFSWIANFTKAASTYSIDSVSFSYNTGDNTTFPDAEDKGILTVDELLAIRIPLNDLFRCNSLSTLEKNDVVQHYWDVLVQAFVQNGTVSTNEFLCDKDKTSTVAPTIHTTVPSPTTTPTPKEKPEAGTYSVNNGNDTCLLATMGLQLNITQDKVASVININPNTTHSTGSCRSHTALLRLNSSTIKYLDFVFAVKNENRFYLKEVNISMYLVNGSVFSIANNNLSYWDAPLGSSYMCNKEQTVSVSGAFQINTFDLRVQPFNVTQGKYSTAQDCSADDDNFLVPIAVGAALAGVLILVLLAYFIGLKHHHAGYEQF
HCV NS3 (HCV 2a virion, J6/JFH/JC) (Q99IB8, residues 1031-1661): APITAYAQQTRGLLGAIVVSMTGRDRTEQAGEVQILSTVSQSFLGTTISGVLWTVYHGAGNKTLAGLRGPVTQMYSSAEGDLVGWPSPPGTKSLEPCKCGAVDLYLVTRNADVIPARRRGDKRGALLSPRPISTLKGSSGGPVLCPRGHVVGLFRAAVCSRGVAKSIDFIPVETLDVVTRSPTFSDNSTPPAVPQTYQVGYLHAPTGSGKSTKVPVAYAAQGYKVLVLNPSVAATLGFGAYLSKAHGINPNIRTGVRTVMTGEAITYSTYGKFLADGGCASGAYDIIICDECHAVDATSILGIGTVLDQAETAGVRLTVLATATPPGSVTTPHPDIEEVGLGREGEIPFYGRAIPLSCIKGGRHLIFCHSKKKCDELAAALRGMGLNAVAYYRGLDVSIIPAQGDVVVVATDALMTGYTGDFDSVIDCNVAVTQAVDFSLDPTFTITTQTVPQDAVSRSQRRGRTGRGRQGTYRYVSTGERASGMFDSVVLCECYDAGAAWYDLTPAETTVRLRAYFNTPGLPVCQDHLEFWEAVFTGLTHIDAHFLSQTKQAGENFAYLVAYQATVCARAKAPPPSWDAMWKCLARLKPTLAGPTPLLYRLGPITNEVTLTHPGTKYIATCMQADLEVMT
HCV NS4B (HCV 2a virion, J6/JFH/JC) (Q99IB8, residues 1716-1976): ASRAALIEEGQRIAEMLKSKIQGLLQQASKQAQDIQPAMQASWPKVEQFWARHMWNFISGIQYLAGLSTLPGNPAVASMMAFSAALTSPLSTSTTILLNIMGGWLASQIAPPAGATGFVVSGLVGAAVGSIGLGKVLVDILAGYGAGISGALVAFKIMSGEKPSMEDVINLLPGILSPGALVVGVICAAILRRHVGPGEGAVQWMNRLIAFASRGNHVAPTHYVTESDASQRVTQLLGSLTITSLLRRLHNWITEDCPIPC

What was measured:
[1] = target: Flag-tagged ATG10S (shorter isoform of autophagy-related 10 protein) (human) (UniProt Q9H0Y0); test: co-IP
[2] = target: Flag-tagged ATG10^C44S/C135S (human) (UniProt Q9H0Y0); test: co-IP
[3] = target: Flag-tagged ATG10^ΔC44 (human) (UniProt Q9H0Y0); test: co-IP
[4] = target: Flag-tagged ATG10^C44S (human) (UniProt Q9H0Y0); test: co-IP
[5] = target: Flag-tagged ATG10^C44A (human) (UniProt Q9H0Y0); test: co-IP
[6] = target: Flag-tagged ATG10^C135S (human) (UniProt Q9H0Y0); test: co-IP
[7] = target: LAMP2 (lysosomal associated membrane protein 2) (human (endogenous in HepG2)) (UniProt P13473); test: co-IP
[8] = target: LAMP2 (lysosomal associated membrane protein 2) (human (endogenous in HepG2)) (UniProt P13473); test: co-IP; remark: listed apart in the source
[9] = target: Flag-tagged ATG10^C44S/C135S (human) (UniProt Q9H0Y0); test: co-IP; HepG2 HCV subgenomic replicon cells transfected with Flag-tagged ATG10 mutants; non-denaturing lysis buffer; anti-Flag, protein A/G plus agarose; immunoblot
[10] = target: Flag-tagged ATG10^ΔC44 (human) (UniProt Q9H0Y0); test: as above
[11] = target: Flag-tagged ATG10^C44S (human) (UniProt Q9H0Y0); test: as above
[12] = target: Flag-tagged ATG10^C44A (human) (UniProt Q9H0Y0); test: as above
[13] = target: Flag-tagged ATG10^C135S (human) (UniProt Q9H0Y0); test: as above

Row | binding [7] | binding [8] | binding [9] | binding [10] | binding [11] | binding [12] | binding [13] | Molecule | binding [1] | binding [2] | binding [3] | binding [4] | binding [5] | binding [6]
1 | – | – | – | – | – | – | – | HCV NS3 (HCV 2a virion, J6/JFH/JC) (from UniProt Q99IB8 1031-1661) (enzyme) | binds | binds | binds | binds | binds | binds
2 | – | – | – | – | – | – | – | HCV NS4B (HCV 2a virion, J6/JFH/JC) (from UniProt Q99IB8 1716-1976) | binds | binds | binds | binds | binds | binds
3 | binds | – | – | – | – | – | – | P62 (sequestosome 1) (from UniProt Q13501 1-440) | binds | binds | binds | binds | binds | binds
4 | – | binds | binds | binds | binds | binds | binds | IL28A (interleukin-28A) (protein, UniProt Q8IZJ0 26-200) VPVARLHGALPDARGCHIAQFKSLSPQELQAFKRAKDALEESLLLKDCRCHSRLFPRTWDLRQLQVRERPMALEAELALTLKVLEATADTDPALVDVLDQPLHTLHHILSQFRACIQPQPTAGPRTRGRLHHWLYRLQEAPKKESPGCLEASVTFNLFRLLTRDLNCVASGDLCV | – | – | – | – | – | –
